Measured values from publication PMC12650828.
For at least one entry, the source does not settle the construct or the ends of the probe. Where cells or extracts were used, other partners may take part. Negatives hold for the conditions tested.

Protein sequences, listed by entry. Tags and fused reporters are not part of them.
UniProt P19338, whole entry: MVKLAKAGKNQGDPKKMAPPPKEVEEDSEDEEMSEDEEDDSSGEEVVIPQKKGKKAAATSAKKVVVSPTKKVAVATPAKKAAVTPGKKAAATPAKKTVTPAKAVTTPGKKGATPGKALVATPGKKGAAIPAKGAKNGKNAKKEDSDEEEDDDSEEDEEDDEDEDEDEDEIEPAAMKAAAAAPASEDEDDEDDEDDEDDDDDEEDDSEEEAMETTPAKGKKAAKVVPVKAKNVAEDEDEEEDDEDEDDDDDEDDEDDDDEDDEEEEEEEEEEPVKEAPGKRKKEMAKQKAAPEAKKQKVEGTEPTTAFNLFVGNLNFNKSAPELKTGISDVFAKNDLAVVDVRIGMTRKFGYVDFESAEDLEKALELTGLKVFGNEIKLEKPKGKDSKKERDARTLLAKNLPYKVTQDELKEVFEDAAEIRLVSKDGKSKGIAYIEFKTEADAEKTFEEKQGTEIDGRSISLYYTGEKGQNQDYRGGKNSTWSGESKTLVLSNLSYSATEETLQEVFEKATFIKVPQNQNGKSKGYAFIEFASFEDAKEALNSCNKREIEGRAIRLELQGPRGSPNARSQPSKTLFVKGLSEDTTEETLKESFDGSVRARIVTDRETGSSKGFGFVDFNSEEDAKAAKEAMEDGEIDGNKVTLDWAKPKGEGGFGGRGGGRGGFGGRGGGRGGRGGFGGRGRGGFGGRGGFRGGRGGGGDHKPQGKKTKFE

Target: cell-surface nucleolin (NCL) (UniProt P19338)
Assay: competition with a labelled probe
Conditions: protein on the cell surface

Sequence | binding result (folded or branched DNA) | binding result
GGTGGTGGTGGTTGTGGTGGTGGTGG [AS1411] | binds | 
GUUAGAGUUUGAGAUUG [Mut (mutant sequence)] |  | no binding
